Data as given in PubChem BioAssay AID1053208 (Peter MacCallum Cancer Centre, 2014).

- Screen: 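Synthetic lethal interactions between gene loss and doxorubicin in osteosarcoma cells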 (primary screen)
- Cells: mouse osteosarcoma cells, early-passage culture from an engineered mouse model of fibroblastic bone tumour
- Reagent: siRNA pool against mouse genes, 40 nM
- Timing: about 120 h (48 h before drug, then 72 h with drug)
- Challenge: doxorubicin 100 nM for 72 h, roughly 30-40% inhibitory dose
- Detection: 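Viability read as ATP luminescence after 72 h of 100 nM doxorubicin or none, duplicate wells averaged, scaled to non-targeting siRNA, then expressed as robust z-scores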
- Scale: viability z-score with doxorubicin: higher = more viable cells under doxorubicin; viability z-score without drug: higher = more viable cells with knock-down alone
- Call rule: 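a pool counts as active when its viability z-score with doxorubicin is -2 or below and its z-score without drug lies between -2 and 2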
The whole screen tested about 17,000 reagents; below is a random part of them. In the full data, 788 (4.7%) are marked active. 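Calls rest on z-score classes alone; an extra cut-off of viability at most 70% of control was not applied to them.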 Unmarked entries are inactive. Further read-outs or replicates are left out here.

For Or4c101, what was measured?
combined z-score class: no change with or without drug; viability z-score with doxorubicin: 0.9; viability z-score without drug: 1.18

What did the screen give for Or6x1?
combined z-score class: no change with or without drug; viability z-score with doxorubicin: -0.22; viability z-score without drug: -0.84

How did the screen score Btbd1?
combined z-score class: no change with or without drug; viability z-score with doxorubicin: 1.12; viability z-score without drug: 0.84

With Frey1, how do the results read?
combined z-score class: low cell count with and without drug; viability z-score with doxorubicin: -2.47; viability z-score without drug: -2.87

For Nelfa, what does the deposit list?
combined z-score class: no change with or without drug; viability z-score with doxorubicin: -1.57; viability z-score without drug: -0.84

For Gm57858, what does the deposit list?
combined z-score class: no change with or without drug; viability z-score with doxorubicin: -0.11; viability z-score without drug: 0.17

How did the screen score Cd22?
combined z-score class: no change with or without drug; viability z-score with doxorubicin: 1.12; viability z-score without drug: 0.84

What is on record for St3gal2?
combined z-score class: no change with or without drug; viability z-score with doxorubicin: -0.34; viability z-score without drug: -0.51

For Ube2t, what was measured?
combined z-score class: no change with or without drug; viability z-score with doxorubicin: -0.67; viability z-score without drug: 0.84

With Cdh4, what does the deposit list?
combined z-score class: no change with or without drug; viability z-score with doxorubicin: -1.91; viability z-score without drug: -0.84

For Art1, what does the deposit list?
combined z-score class: high cell count with and without drug; viability z-score with doxorubicin: 2.7; viability z-score without drug: 2.19

What is on record for Ankle2?
combined z-score class: low cell count with and without drug; viability z-score with doxorubicin: -3.04; viability z-score without drug: -2.19

What did the screen give for Pepf?
combined z-score class: no change with or without drug; viability z-score with doxorubicin: -1.24; viability z-score without drug: -0.51

For Sertad2, how do the results read?
combined z-score class: high cell count with and without drug; viability z-score with doxorubicin: 2.25; viability z-score without drug: 2.19

How did the screen score Nrip2?
combined z-score class: no change with or without drug; viability z-score with doxorubicin: 1.01; viability z-score without drug: 0.51

How did the screen score Vmn1r70?
combined z-score class: no change with or without drug; viability z-score with doxorubicin: 0.45; viability z-score without drug: 1.01

With Mrps18a, how do the results read?
combined z-score class: no change with or without drug; viability z-score with doxorubicin: -0.9; viability z-score without drug: -1.52

For Ccl21d, how do the results read?
combined z-score class: no change with or without drug; viability z-score with doxorubicin: -1.12; viability z-score without drug: -0.17

What is on record for Ovol1?
combined z-score class: no change with or without drug; viability z-score with doxorubicin: -1.8; viability z-score without drug: -0.51

What did the screen give for Wfs1?
combined z-score class: no change with or without drug; viability z-score with doxorubicin: -1.57; viability z-score without drug: -0.51

For Asb8, what was measured?
combined z-score class: no change with or without drug; viability z-score with doxorubicin: -0.22; viability z-score without drug: -1.18

With Etf1, how do the results read?
combined z-score class: low cell count with and without drug; viability z-score with doxorubicin: -4.72; viability z-score without drug: -4.55

How did the screen score Tmprss11g?
combined z-score class: no change with or without drug; viability z-score with doxorubicin: -0.34; viability z-score without drug: 1.01

Which result is listed for Cdca7l?
combined z-score class: no change with or without drug; viability z-score with doxorubicin: -0.9; viability z-score without drug: -0.84

How did the screen score Eif3k?
combined z-score class: low cell count with and without drug; viability z-score with doxorubicin: -7.19; viability z-score without drug: -6.24

For Cyp39a1, what does the deposit list?
combined z-score class: no change with or without drug; viability z-score with doxorubicin: 0.22; viability z-score without drug: 0.34

How did the screen score Desi2?
combined z-score class: low cell count with doxorubicin only (active); viability z-score with doxorubicin: -2.02; viability z-score without drug: 0

With Fads3, what was measured?
combined z-score class: no change with or without drug; viability z-score with doxorubicin: 0.56; viability z-score without drug: 0.84

Records above whose gene name begins with N or n:
Nelfa — combined z-score class = no change with or without drug; viability z-score with doxorubicin = -1.57; viability z-score without drug = -0.84
Nrip2 — combined z-score class = no change with or without drug; viability z-score with doxorubicin = 1.01; viability z-score without drug = 0.51
